{"source": "the supplement of paper PMC11150407", "note": "The strong results were mostly taken out for another list; the other results follow."}
{"test_system": "MOLM1 and UCSD/AML1 (averaged)", "test": "cell viability relative to DMSO control (POC); higher = less growth inhibition", "details": "1 µM; 72 h", "procedure": "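Primary viability screen in the 3q26 EVI1-high AML cell lines MOLM1 and UCSD/AML1, compounds at 1 uM for 72 h. ATP CellTiter-Glo read-out given as percent viable over DMSO control (POC), averaged over duplicates. This mapping covers the TimTec NDL-3000 natural derivative library, whose compounds are identified by TimTec catalogue codes (ST...).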", "units": {"cell viability": "%"}}
{"smiles": "COc1ccc(NC(=O)/C=C/c2ccccc2)cc1", "cell viability": 91.4}
{"smiles": "O=C1CC(c2ccccc2)Oc2cc(O)ccc21", "note": "(configuration not stated)", "cell viability": 99.4}
